Measured values from the supplement of paper PMC4604168 (melanoma cell lines).
The list shows a part of the results. Repeats are few or missing, and single values can be far off.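 Imaging used 1,536-well plates; nuclei positive for cleaved PARP by antibody were divided by total DNA-stained nuclei to yield the apoptosis fraction. Doses for screening kept most cells viable, and cell lines differ markedly in resting and induced cleaved-PARP levels.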

Assays:
Assay in all cases: cleaved PARP positive nuclei fraction relative to DMSO control; melanoma cells; higher = more apoptosis
Settings in all cases: library dose: low library concentration; 72 h
[1] = tested on: CBRC034 (line from a melanoma biopsy)
[2] = tested on: COLO792
[3] = tested on: COLO800
[4] = tested on: COLO829
[5] = tested on: G361
[6] = tested on: IPC-298
[7] = tested on: IST-MEL1
[8] = tested on: LB2518-MEL
[9] = tested on: LOXIMVI
[10] = tested on: MZ2-MEL
[11] = tested on: MeWo
[12] = tested on: RPMI7951
[13] = tested on: RVH-421
[14] = tested on: SkMel28
[15] = tested on: SkMel30
[16] = tested on: SkMel5
[17] = tested on: UACC257
[18] = tested on: UACC62
[19] = tested on: MEL-HO

Compound	cleaved PARP positive nuclei fraction [1] [%]	cleaved PARP positive nuclei fraction [2] [%]	cleaved PARP positive nuclei fraction [3] [%]	cleaved PARP positive nuclei fraction [4] [%]	cleaved PARP positive nuclei fraction [5] [%]	cleaved PARP positive nuclei fraction [6] [%]	cleaved PARP positive nuclei fraction [7] [%]	cleaved PARP positive nuclei fraction [8] [%]	cleaved PARP positive nuclei fraction [9] [%]	cleaved PARP positive nuclei fraction [10] [%]	cleaved PARP positive nuclei fraction [11] [%]	cleaved PARP positive nuclei fraction [12] [%]	cleaved PARP positive nuclei fraction [13] [%]	cleaved PARP positive nuclei fraction [14] [%]	cleaved PARP positive nuclei fraction [15] [%]	cleaved PARP positive nuclei fraction [16] [%]	cleaved PARP positive nuclei fraction [17] [%]	cleaved PARP positive nuclei fraction [18] [%]	cleaved PARP positive nuclei fraction [19] [%]
C=CCn1c(=O)c2cnc(Nc3ccc(N4CCN(C)CC4)cc3)nc2n1-c1cccc(C(C)(C)O)n1 + Cn1cc(/C=C2\C(=O)Nc3cccnc32)c2ccccc21 [GW441756] (first compound 0.02 µM, partner dose 0.4 µM)	89.7	172	114	39.4	82.5	77.8	67	119	123	105	55	90.5	85.3	94.5	24	47.9	116	138	
NC(=O)Nc1cc(-c2cccc(F)c2)sc1C(=O)N[C@H]1CCCNC1 + O=C1NC(=O)/C(=C/c2ccc(-c3ccc(F)cc3O)o2)S1 [AS252424] (first compound 0.02 µM, partner dose 1 µM)	78.4	87.8	126	138	45.8	36.6	25.5	59.9	62.5	188	57.6	176	24.2	66.6	33.6	103	93.6	32.6	
CO[C@@H]1[C@H](N(C)C(=O)c2ccccc2)C[C@H]2O[C@]1(C)n1c3ccccc3c3c4c(c5c6ccccc6n2c5c31)C(=O)NC4 [Midostaurin] + CCN(CC)CCCCNc1ncc2cc(-c3cc(OC)cc(OC)c3)c(NC(=O)NC(C)(C)C)nc2n1 [PD173074] (first compound 0.08 µM, partner dose 0.1 µM)	230	113	82.8	53.1	69.8	56.5	146	39.6	83.8	145	52.6	41	65.7	56.3	76.1	29.9	208	81.4	
Cc1ccc(NC(=O)c2cccc(N(C)C)c2)cc1NC(=O)c1ccc(O)cc1 + O=c1cc(-c2cccc3c2Sc2ccccc2S3)oc(N2CCOCC2)c1 [KU55933] (first compound 2 µM, partner dose 1 µM)	211	114	159	130	54	35.8	41	80.7	44.6	105	67.1	108	54.3	148	106	85.4	63.7	44	
C=CCn1c(=O)c2cnc(Nc3ccc(N4CCN(C)CC4)cc3)nc2n1-c1cccc(C(C)(C)O)n1 + O=S(=O)(c1ccccc1)N(CC(F)(F)F)c1ccc(C(O)(C(F)(F)F)C(F)(F)F)cc1 [T0901317] (first compound 0.02 µM, partner dose 1.4 µM)	60.3	32.7	90.3	34.1	113	48	28.7	85.2	167	76.4	69.5	71.7	101	126	118	283	117	168	
COc1cc(Nc2ncc(F)c(Nc3ccc4c(n3)NC(=O)C(C)(C)O4)n2)cc(OC)c1OC [Tamatinib] + COC(=O)c1sccc1S(=O)(=O)Nc1ccc(Nc2ccccc2)cc1OC [GSK0660] (first compound 0.4 µM, partner dose 1 µM)	43.3	205	184	91.1	237	56.6	72.2	86.8	39.7	171	38.9	109	64.7	153	60.8	43.6	318	101	
C[C@]1(c2nc3c(C(N)=O)cccc3[nH]2)CCCN1 [Veliparib] + O=c1cc(-c2cccc3c2Sc2ccccc2S3)oc(N2CCOCC2)c1 [KU55933] (first compound 1.4 µM, partner dose 1 µM)	98.9	34.6	109	42.4	48.9	80.4	87.3		33.5		95.5	74.9	91.1	125	334	116	46.2	145	
Cn1nnc2c(C(N)=O)ncn2c1=O [temozolomide] + CCc1ccc(CCOc2ccc(CC3SC(=O)NC3=O)cc2)nc1 [pioglitazone] (first compound 2 µM, partner dose 2 µM)	20.8	208	100	101	77.7	90.3	330	167	20.3	110	80.8	69.6	48.3	160	25.1	55.4	81.4	60.8	
OCc1c[nH]c2ccccc12 [Indole-3-carbinol] + Clc1ccc(Nc2nnc(Cc3ccncc3)c3ccccc23)cc1 [vatalanib] (first compound 0.8 µM, partner dose 2 µM)	135	46.5	97	94.5	152	276	41.7		83.5		118	53	120	95.6	97.3			88	235
CC1(C)NC(=O)N(c2ccc([N+](=O)[O-])c(C(F)(F)F)c2)C1=O [nilutamide] + Oc1nc(-c2ccc(C(F)(F)F)cc2)nc2c1CSCC2 [XAV939] (first compound 1 µM, partner dose 2 µM)	124	286	53.9	81.6	130	67.5	174	177	65.9	90	57.1	46.8	57.2	88.5	34.9	35.9	112	69.1	
